Laboratory results as given in patent US20190110981A1, “Cannabinoid Patch” (LIFE TECH GLOBAL, LLC, priority 2017, published 2019).
Some results were stated once for a whole list of compounds, not compound by compound.

Assay: In vitro transdermal flux, human cadaver skin and Franz diffusion cell
Type: in vitro ADME
Settings: over twenty hours; dermal patch with PIB and about 15% CBD oil; human cadaver skin, Franz diffusion cell
Source text: FIG. 1. In vitro cumulative flux (micrograms/cm^2) of cannabidiol (CBD) through skin versus time (hours).
FIG. 2. In vitro flux of tetrahydrocannabinol (THC) from ethanol/water, at each of the indicated ratios of ethanol/water.
The disclosure provides a graph of transdermal flux (FIG. 3). […] Alternatively, the oil contains CBD/THC in a 1:1 ratio (wt./wt.).
The following concerns reservoir patches. The composition inside the reservoir can have the consistency of a paste, but in an alternative embodiment, it can have the consistency of an oil, or it can have the consistency of a liquid, or it can have the consistency of a slurry. Parameters for FIG. 2 are as follows. Flux was allowed to occur for 24 hours, and FIG. 2 provides the value at 24 hours, […] The layers are 30 cm square and the hydrogel is one cm cubed or one milliliter. The layers have microporous membrane with […] pore size. The layers have occlusive heat seal around edges. There is a protective release liner. The embodiment can be made with or without silicone adhesive.

## C=C(C)[C@@H]1CCC(C)=C[C@H]1c1c(O)cc(CCCCC)cc1O [CBD, cannabidiol]
  Cumulative flux of CBD: at least 40 micrograms CBD per cm^2
